Results reported in publication doi:10.1101/2025.08.11.669663.
These are yes or no findings as the source states them, for the method shown. Binding seen in cells or lysates may run through a third protein. A yes stands for co-enrichment or nearness to the bait. Other partners may have been found.

The chains behind the UniProt entries cited, without tags or fusion partners.
UniProt P00441: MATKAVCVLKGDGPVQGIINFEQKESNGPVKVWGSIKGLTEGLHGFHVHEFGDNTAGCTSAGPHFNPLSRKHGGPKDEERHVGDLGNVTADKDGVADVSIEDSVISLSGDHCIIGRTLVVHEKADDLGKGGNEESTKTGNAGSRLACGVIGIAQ

T1: peroxiredoxin 2 (PRDX2) (human (endogenous in HeLa)) (UniProt P32119)
T1 sequence: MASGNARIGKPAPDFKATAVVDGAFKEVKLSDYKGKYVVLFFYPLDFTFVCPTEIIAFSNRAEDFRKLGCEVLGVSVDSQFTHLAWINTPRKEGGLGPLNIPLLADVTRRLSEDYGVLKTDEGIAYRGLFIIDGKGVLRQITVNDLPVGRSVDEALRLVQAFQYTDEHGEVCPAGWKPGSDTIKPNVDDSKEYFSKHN

T2: catalase (CAT) (human (endogenous in HeLa)) (UniProt P04040)
T2 sequence: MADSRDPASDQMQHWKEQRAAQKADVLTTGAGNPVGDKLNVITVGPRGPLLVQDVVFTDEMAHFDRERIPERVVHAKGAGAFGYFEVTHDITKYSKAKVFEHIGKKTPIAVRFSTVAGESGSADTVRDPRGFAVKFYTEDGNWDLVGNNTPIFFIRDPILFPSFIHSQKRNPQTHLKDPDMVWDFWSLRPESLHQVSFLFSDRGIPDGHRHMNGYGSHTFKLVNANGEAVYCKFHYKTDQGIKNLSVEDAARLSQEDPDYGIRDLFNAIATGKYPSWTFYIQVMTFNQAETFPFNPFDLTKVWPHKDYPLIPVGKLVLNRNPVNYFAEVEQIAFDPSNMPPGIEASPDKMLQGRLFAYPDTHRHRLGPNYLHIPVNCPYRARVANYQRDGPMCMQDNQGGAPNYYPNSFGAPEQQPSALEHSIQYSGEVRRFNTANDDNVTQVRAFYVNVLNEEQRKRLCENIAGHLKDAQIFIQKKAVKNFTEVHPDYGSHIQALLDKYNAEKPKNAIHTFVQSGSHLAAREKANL

T3: catalase (CAT) (human (endogenous in HeLa)), P04040
T3 chain: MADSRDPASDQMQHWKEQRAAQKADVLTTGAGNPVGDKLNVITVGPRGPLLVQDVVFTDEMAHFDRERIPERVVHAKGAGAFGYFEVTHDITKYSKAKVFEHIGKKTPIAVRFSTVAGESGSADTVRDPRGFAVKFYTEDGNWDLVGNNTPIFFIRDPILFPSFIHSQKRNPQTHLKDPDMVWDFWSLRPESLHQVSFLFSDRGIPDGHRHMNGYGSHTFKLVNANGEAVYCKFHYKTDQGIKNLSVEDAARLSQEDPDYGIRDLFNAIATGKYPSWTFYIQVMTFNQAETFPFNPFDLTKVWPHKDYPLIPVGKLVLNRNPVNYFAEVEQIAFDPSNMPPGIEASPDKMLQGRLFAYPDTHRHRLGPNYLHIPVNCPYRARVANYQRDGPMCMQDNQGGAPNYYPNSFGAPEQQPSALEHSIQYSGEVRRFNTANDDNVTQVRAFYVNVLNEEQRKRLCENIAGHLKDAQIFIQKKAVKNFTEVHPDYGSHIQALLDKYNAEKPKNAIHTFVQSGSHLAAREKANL


Key:
Test in all cases: affinity purification with mass spectrometry
[1] = molecular target: Cu/Zn superoxide dismutase (SOD1) (human (endogenous in HeLa)) (UniProt P00441)
[2] = molecular target: T1, peroxiredoxin 2 (PRDX2) (human (endogenous in HeLa))
[3] = molecular target: T2, catalase (CAT) (human (endogenous in HeLa))
[4] = molecular target: T3, catalase (CAT) (human (endogenous in …)); settings: remark: other sources report otherwise

binding [1] | binding [2] | binding [3] | binding [4] | Binder
binds | binds | binds |  | TXN (protein, UniProt P10599 1-105) MVKQIESKTAFQEALDAAGDKLVVVDFSATWCGPCKMIKPFFHSLSEKYSNVIFLEVDVDDCQDVASECEVKCMPTFQFFKKGQKVGEFSGANKEKLEATINELV
binds |  |  |  | catalase (CAT) (protein, UniProt P04040 1-527) MADSRDPASDQMQHWKEQRAAQKADVLTTGAGNPVGDKLNVITVGPRGPLLVQDVVFTDEMAHFDRERIPERVVHAKGAGAFGYFEVTHDITKYSKAKVFEHIGKKTPIAVRFSTVAGESGSADTVRDPRGFAVKFYTEDGNWDLVGNNTPIFFIRDPILFPSFIHSQKRNPQTHLKDPDMVWDFWSLRPESLHQVSFLFSDRGIPDGHRHMNGYGSHTFKLVNANGEAVYCKFHYKTDQGIKNLSVEDAARLSQEDPDYGIRDLFNAIATGKYPSWTFYIQVMTFNQAETFPFNPFDLTKVWPHKDYPLIPVGKLVLNRNPVNYFAEVEQIAFDPSNMPPGIEASPDKMLQGRLFAYPDTHRHRLGPNYLHIPVNCPYRARVANYQRDGPMCMQDNQGGAPNYYPNSFGAPEQQPSALEHSIQYSGEVRRFNTANDDNVTQVRAFYVNVLNEEQRKRLCENIAGHLKDAQIFIQKKAVKNFTEVHPDYGSHIQALLDKYNAEKPKNAIHTFVQSGSHLAAREKANL
binds | binds | binds |  | PRDX4 (protein, UniProt Q13162 38-271) WETEERPRTREEECHFYAGGQVYPGEASRVSVADHSLHLSKAKISKPAPYWEGTAVIDGEFKELKLTDYRGKYLVFFFYPLDFTFVCPTEIIAFGDRLEEFRSINTEVVACSVDSQFTHLAWINTPRRQGGLGPIRIPLLSDLTHQISKDYGVYLEDSGHTLRGLFIIDDKGILRQITLNDLPVGRSVDETLRLVQAFQYTDKHGEVCPAGWKPGSETIIPDPAGKLKYFDKLN
 | binds | binds |  | PRDX5 (protein, UniProt P30044 53-214) MAPIKVGDAIPAVEVFEGEPGNKVNLAELFKGKKGVLFGVPGAFTPGCSKTHLPGFVEQAEALKAKGVQVVACLSVNDAFVTGEWGRAHKAEGKVRLLADPTGAFGKETDLLLDDSLVSIFGNRRLKRFSMVVQDGIVKALNVEPDGTGLTCSLAPNIISQL
binds |  | binds |  | peroxiredoxin 2 (PRDX2) (protein, UniProt P32119 1-198) MASGNARIGKPAPDFKATAVVDGAFKEVKLSDYKGKYVVLFFYPLDFTFVCPTEIIAFSNRAEDFRKLGCEVLGVSVDSQFTHLAWINTPRKEGGLGPLNIPLLADVTRRLSEDYGVLKTDEGIAYRGLFIIDGKGVLRQITVNDLPVGRSVDEALRLVQAFQYTDEHGEVCPAGWKPGSDTIKPNVDDSKEYFSKHN
binds | binds | binds |  | PRDX6 (protein, UniProt P30041 1-224) MPGGLLLGDVAPNFEANTTVGRIRFHDFLGDSWGILFSHPRDFTPVCTTELGRAAKLAPEFAKRNVKLIALSIDSVEDHLAWSKDINAYNCEEPTEKLPFPIIDDRNRELAILLGMLDPAEKDEKGMPVTARVVFVFGPDKKLKLSILYPATTGRNFDEILRVVISLQLTAEKRVATPVDWKDGDSVMVLPTIPEEEAKKLFPKGVFTKELPSGKKYLRYTPQP
binds | binds | binds |  | PRIM2 (a DNA primase subunit) (protein, UniProt P49643 1-509) MEFSGRKWRKLRLAGDQRNASYPHCLQFYLQPPSENISLIEFENLAIDRVKLLKSVENLGVSYVKGTEQYQSKLESELRKLKFSYRENLEDEYEPRRRDHISHFILRLAYCQSEELRRWFIQQEMDLLRFRFSILPKDKIQDFLKDSQLQFEAISDEEKTLREQEIVASSPSLSGLKLGFESIYKIPFADALDLFRGRKVYLEDGFAYVPLKDIVAIILNEFRAKLSKALALTARSLPAVQSDERLQPLLNHLSHSYTGQDYSTQGNVGKISLDQIDLLSTKSFPPCMRQLHKALRENHHLRHGGRMQYGLFLKGIGLTLEQALQFWKQEFIKGKMDPDKFDKGYSYNIRHSFGKEGKRTDYTPFSCLKIILSNPPSQGDYHGCPFRHSDPELLKQKLQSYKISPGGISQILDLVKGTHYQVACQKYFEMIHNVDDCGFSLNHPNQFFCESQRILNGGKDIKKEPIQPETPQPKPSVQKTKDASSALASLNSSLEMDMEGLEDYFSEDS

Continued, binder first:

Binder | binding [1] | binding [2] | binding [3] | binding [4]
MCM6 (protein, UniProt Q14566 1-821) MDLAAAAEPGAGSQHLEVRDEVAEKCQKLFLDFLEEFQSSDGEIKYLQLAEELIRPERNTLVVSFVDLEQFNQQLSTTIQEEFYRVYPYLCRALKTFVKDRKEIPLAKDFYVAFQDLPTRHKIRELTSSRIGLLTRISGQVVRTHPVHPELVSGTFLCLDCQTVIRDVEQQFKYTQPNICRNPVCANRRRFLLDTNKSRFVDFQKVRIQETQAELPRGSIPRSLEVILRAEAVESAQAGDKCDFTGTLIVVPDVSKLSTPGARAETNSRVSGVDGYETEGIRGLRALGVRDLSYRLVFLACCVAPTNPRFGGKELRDEEQTAESIKNQMTVKEWEKVFEMSQDKNLYHNLCTSLFPTIHGNDEVKRGVLLMLFGGVPKTTGEGTSLRGDINVCIVGDPSTAKSQFLKHVEEFSPRAVYTSGKASSAAGLTAAVVRDEESHEFVIEAGALMLADNGVCCIDEFDKMDVRDQVAIHEAMEQQTISITKAGVKATLNARTSILAAANPISGHYDRSKSLKQNINLSAPIMSRFDLFFILVDECNEVTDYAIARRIVDLHSRIEESIDRVYSLDDIRRYLLFARQFKPKISKESEDFIVEQYKHLRQRDGSGVTKSSWRITVRQLESMIRLSEAMARMHCCDEVQPKHVKEAFRLLNKSIIRVETPDVNLDQEEEIQMEVDEGAGGINGHADSPAPVNGINGYNEDINQESAPKASLRLGFSEYCRISNLIVLHLRKVEEEEDESALKRSELVNWYLKEIESEIDSEEELINKKRIIEKVIHRLTHYDHVLIELTQAGLKGSTEGSESYEEDPYLVVNPNYLLED | binds | binds |  | 
PRDX1 (protein, UniProt Q06830 1-199) MSSGNAKIGHPAPNFKATAVMPDGQFKDISLSDYKGKYVVFFFYPLDFTFVCPTEIIAFSDRAEEFKKLNCQVIGASVDSHFCHLAWVNTPKKQGGLGPMNIPLVSDPKRTIAQDYGVLKADEGISFRGLFIIDDKGILRQITVNDLPVGRSVDETLRLVQAFQFTDKHGEVCPAGWKPGSDTIKPDVQKSKEYFSKQK | binds |  |  | 
PRDX1, Q06830 1-199 (protein) MSSGNAKIGHPAPNFKATAVMPDGQFKDISLSDYKGKYVVFFFYPLDFTFVCPTEIIAFSDRAEEFKKLNCQVIGASVDSHFCHLAWVNTPKKQGGLGPMNIPLVSDPKRTIAQDYGVLKADEGISFRGLFIIDDKGILRQITVNDLPVGRSVDETLRLVQAFQFTDKHGEVCPAGWKPGSDTIKPDVQKSKEYFSKQK |  |  |  | binds
GPX8 (protein, UniProt Q8TED1 1-209) MEPLAAYPLKCSGPRAKVFAVLLSIVLCTVTLFLLQLKFLKPKINSFYAFEVKDAKGRTVSLEKYKGKVSLVVNVASDCQLTDRNYLGLKELHKEFGPSHFSVLAFPCNQFGESEPRPSKEVESFARKNYGVTFPIFHKIKILGSEGEPAFRFLVDSSKKEPRWNFWKYLVNPEGQVVKFWKPEEPIEVIRPDIAALVRQVIIKKKEDL | binds | binds | binds | 
MCM3 (protein, UniProt P25205 1-808) MAGTVVLDDVELREAQRDYLDFLDDEEDQGIYQSKVRELISDNQYRLIVNVNDLRRKNEKRANRLLNNAFEELVAFQRALKDFVASIDATYAKQYEEFYVGLEGSFGSKHVSPRTLTSCFLSCVVCVEGIVTKCSLVRPKVVRSVHYCPATKKTIERRYSDLTTLVAFPSSSVYPTKDEENNPLETEYGLSVYKDHQTITIQEMPEKAPAGQLPRSVDVILDDDLVDKAKPGDRVQVVGTYRCLPGKKGGYTSGTFRTVLIACNVKQMSKDAQPSFSAEDIAKIKKFSKTRSKDIFDQLAKSLAPSIHGHDYVKKAILCLLLGGVERDLENGSHIRGDINILLIGDPSVAKSQLLRYVLCTAPRAIPTTGRGSSGVGLTAAVTTDQETGERRLEAGAMVLADRGVVCIDEFDKMSDMDRTAIHEVMEQGRVTIAKAGIHARLNARCSVLAAANPVYGRYDQYKTPMENIGLQDSLLSRFDLLFIMLDQMDPEQDREISDHVLRMHRYRAPGEQDGDAMPLGSAVDILATDDPNFSQEDQQDTQIYEKHDNLLHGTKKKKEKMVSAAFMKKYIHVAKIIKPVLTQESATYIAEEYSRLRSQDSMSSDTARTSPVTARTLETLIRLATAHAKARMSKTVDLQDAEEAVELVQYAYFKKVLEKEKKRKKRSEDESETEDEEEKSQEDQEQKRKRRKTRQPDAKDGDSYDPYDFSDTEEEMPQVHTPKTADSQETKESQKVELSESRLKAFKVALLDVFREAHAQSIGMNRLTESINRDSEEPFSSVEIQAALSKMQDDNQVMVSEGIIFLI | binds | binds |  | 
